From patent US10149887B2, “Peptides and peptidomimetics in combination with t cell activating and/or checkpoint inhibiting agents for cancer treatment” (CanBas Co., Ltd., priority 2015, dated 2018)
Part of at least one peptide drawing is inferred or uncertain, most often the ends. Some entries share one result that the patent states for a list of compounds. Square brackets hold non-standard residues; d marks the D form. Peptide text beside a SMILES is read from it. dPhe(F5) = N[C@H](Cc1c(F)c(F)c(F)c(F)c1F)C(=O)O; dBpa = N[C@H](Cc1ccc(C(=O)c2ccccc2)cc1)C(=O)O; dCha = N[C@H](CC1CCCCC1)C(=O)O

Amino acid sequences for entries named in this document (tags omitted).
UniProt O96017, whole entry: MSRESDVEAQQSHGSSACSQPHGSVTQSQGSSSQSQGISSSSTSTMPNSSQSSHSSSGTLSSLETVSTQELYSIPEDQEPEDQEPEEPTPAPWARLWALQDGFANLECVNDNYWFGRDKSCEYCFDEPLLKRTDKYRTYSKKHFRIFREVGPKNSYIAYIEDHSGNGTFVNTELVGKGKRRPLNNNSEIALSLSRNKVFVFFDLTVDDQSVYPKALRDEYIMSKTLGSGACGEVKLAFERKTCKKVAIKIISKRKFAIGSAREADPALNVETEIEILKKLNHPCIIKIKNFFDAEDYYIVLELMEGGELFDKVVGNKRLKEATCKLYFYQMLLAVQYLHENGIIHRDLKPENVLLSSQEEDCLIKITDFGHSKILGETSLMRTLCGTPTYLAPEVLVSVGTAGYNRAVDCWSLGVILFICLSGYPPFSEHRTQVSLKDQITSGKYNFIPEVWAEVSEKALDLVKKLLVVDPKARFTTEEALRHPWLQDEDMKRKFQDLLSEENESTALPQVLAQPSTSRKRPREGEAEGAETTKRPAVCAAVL

Assays:
CHK2 = CHK2 (Homo sapiens, UniProt O96017); test: In vitro kinase inhibition, PepTag Non-Radioactive Protein Kinase Assay; assay type: biochemical; conditions: purified CHK2 kinase
Procedure: Since two kinases, Chk1 and Chk2, are important for G2 checkpoint mechanism, kinase inhibition analysis of both enzymes was performed. In vitro kinase inhibition analysis was performed using “PepTag® Non-Radioactive Protein Kinase Assays”, Promega, according to company's protocol, except purified CHK2 kinase was used instead of PKC.

PKA = test: In vitro kinase inhibition, PepTag Non-Radioactive Protein Kinase Assay; assay type: biochemical

| SMILES | IC50 (CHK2) [µM] | G2 abrogating dose (Jurkat cells; dose with 40 μg/ml bleomycine giving detectable G2 checkpoint abrogation, 24 hours) [µM] | IC50 (PKA) [µM] | IC50 (Jurkat cells; read-out: IC50 for G2 abrogation) [µM] |
| --- | --- | --- | --- | --- |
| N=C(N)NCCC[C@H](NC(=O)CNC(=O)[C@@H](N)Cc1ccc(O)cc1)C(=O)N[C@@H](CCCCN)C(=O)N[C@@H](CCCCN)C(=O)N[C@@H](CCCNC(=N)N)C(=O)N[C@@H](CCCNC(=N)N)C(=O)N[C@@H](CCC(N)=O)C(=O)N[C@@H](CCCNC(=N)N)C(=O)N[C@@H](CCCNC(=N)N)C(=O)N[C@@H](CCCNC(=N)N)C(=O)N[C@@H](CC1CCCCC1)C(=O)N[C@@H](Cc1c(F)c(F)c(F)c(F)c1F)C(=O)NCCCCCCCCCCC(=O)N[C@@H](Cc1ccc(O)cc1)C(=O)N[C@@H](Cc1ccc(O)cc1)C(=O)O [CBP440, (1-Tyr)(1-Gly)(1-Arg)(1-Lys)(1-Lys)(1-Arg)(1-Arg)(1-Gln)(1-Arg)(1-Arg)(1-Arg)(1-Cha)(1-Phe-2,3,4,5,6-F)(1-aminoundecanoic acid)(1-Tyr)(1-Tyr)] | 8 | ≥1.56 | 180 | – |
| N=C(N)NCCC[C@@H](NC(=O)[C@@H](CCCNC(=N)N)NC(=O)[C@@H](CCC(N)=O)NC(=O)[C@@H](CCCNC(=N)N)NC(=O)[C@@H](CCCNC(=N)N)NC(=O)[C@@H](CCCNC(=N)N)NC(=O)[C@@H](CC1CCCCC1)NC(=O)[C@@H](Cc1c(F)c(F)c(F)c(F)c1F)NC(=O)[C@@H](CO)NC(=O)[C@@H](Cc1c[nH]c2ccccc12)NC(=O)[C@@H](CO)NC(=O)[C@@H](Cc1ccc(C(=O)c2ccccc2)cc1)NC(=O)[C@H](N)Cc1ccc(O)cc1)C(=O)O [CBP500, (d-Tyr)(d-Bpa)(d-Ser)(d-Trp)(d-Ser)(d-Phe-2,3,4,5,6-F)(d-Cha)(d-Arg)(d-Arg)(d-Arg)(d-Gln)(d-Arg)(d-Arg)] (H-[dY][dBpa][dS][dW][dS][dPhe(F5)][dCha][dR][dR][dR][dQ][dR][dR]-OH; N-terminus and C-terminus assumed) | – | – | – | < 1 |
